Measured values: publication doi:10.1101/2021.10.26.465776
These are yes or no findings as the source states them, for the method shown. Some entries that bind do so weakly or less than the wild type.

T1: NDC1 (human (endogenous in HeLa)) (UniProt Q9BTX1)
T1 sequence: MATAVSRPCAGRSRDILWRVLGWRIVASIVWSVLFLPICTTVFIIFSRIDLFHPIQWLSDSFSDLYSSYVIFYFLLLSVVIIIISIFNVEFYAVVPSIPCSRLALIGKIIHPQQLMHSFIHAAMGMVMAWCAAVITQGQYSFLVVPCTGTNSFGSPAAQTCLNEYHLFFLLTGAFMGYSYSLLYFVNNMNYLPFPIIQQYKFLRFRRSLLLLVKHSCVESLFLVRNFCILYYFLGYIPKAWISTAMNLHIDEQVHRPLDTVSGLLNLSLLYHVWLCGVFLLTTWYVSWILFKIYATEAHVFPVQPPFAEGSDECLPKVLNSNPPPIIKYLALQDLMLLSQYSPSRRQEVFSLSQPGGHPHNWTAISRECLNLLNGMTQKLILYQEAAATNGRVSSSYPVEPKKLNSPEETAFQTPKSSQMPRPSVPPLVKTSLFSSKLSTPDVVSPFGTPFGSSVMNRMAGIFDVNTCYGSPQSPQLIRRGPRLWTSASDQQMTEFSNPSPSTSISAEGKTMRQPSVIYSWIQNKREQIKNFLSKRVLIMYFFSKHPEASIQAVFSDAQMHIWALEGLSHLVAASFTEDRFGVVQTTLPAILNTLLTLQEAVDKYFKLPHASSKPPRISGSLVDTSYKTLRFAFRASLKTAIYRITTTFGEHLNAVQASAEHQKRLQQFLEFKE

T2: Nup85 (human (endogenous in HeLa)) (UniProt Q9BW27)
T2 sequence: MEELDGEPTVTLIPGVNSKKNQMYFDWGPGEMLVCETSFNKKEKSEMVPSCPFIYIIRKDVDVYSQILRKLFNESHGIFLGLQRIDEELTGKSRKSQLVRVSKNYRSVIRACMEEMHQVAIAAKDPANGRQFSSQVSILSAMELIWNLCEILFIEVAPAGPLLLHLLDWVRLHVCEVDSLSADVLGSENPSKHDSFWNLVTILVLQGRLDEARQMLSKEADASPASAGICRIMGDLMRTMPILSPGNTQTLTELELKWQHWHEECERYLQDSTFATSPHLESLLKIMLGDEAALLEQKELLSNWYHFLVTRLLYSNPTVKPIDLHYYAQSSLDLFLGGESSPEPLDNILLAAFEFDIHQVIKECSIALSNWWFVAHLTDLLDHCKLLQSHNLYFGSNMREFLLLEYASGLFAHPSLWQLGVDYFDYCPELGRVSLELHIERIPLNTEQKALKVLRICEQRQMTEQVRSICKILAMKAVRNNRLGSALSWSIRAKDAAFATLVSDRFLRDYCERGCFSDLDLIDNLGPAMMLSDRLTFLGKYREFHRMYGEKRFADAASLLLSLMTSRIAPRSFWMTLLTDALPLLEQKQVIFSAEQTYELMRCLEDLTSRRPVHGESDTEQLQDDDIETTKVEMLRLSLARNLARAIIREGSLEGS

B1: Aladin (protein, UniProt Q9NRG9 1-546)
chain: MCSLGLFPPPPPRGQVTLYEHNNELVTGSSYESPPPDFRGQWINLPVLQLTKDPLKTPGRLDHGTRTAFIHHREQVWKRCINIWRDVGLFGVLNEIANSEEEVFEWVKTASGWALALCRWASSLHGSLFPHLSLRSEDLIAEFAQVTNWSSCCLRVFAWHPHTNKFAVALLDDSVRVYNASSTIVPSLKHRLQRNVASLAWKPLSASVLAVACQSCILIWTLDPTSLSTRPSSGCAQVLSHPGHTPVTSLAWAPSGGRLLSASPVDAAIRVWDVSTETCVPLPWFRGGGVTNLLWSPDGSKILATTPSAVFRVWEAQMWTCERWPTLSGRCQTGCWSPDGSRLLFTVLGEPLIYSLSFPERCGEGKGCVGGAKSATIVADLSETTIQTPDGEERLGGEAHSMVWDPSGERLAVLMKGKPRVQDGKPVILLFRTRNSPVFELLPCGIIQGEPGAQPQLITFHPSFNKGALLSVGWSTGRIAHIPLYFVNAQFPRFSPVLGRAQEPPAGGGGSIHDLPLFTETSPTSAPWDPLPGPPPVLPHSPHSHL
B2: Nup43 (protein, UniProt Q8NFH3 1-380)
chain: MEEIYAKFVSQKISKTRWRPLPPGSLQTAETFATGSWDNEENYISLWSIGDFGNLDSDGGFEGDHQLLCDIRHHGDVMDLQFFDQERIVAASSTGCVTVFLHHPNNQTLSVNQQWTTAHYHTGPGSPSYSSAPCTGVVCNNPEIVTVGEDGRINLFRADHKEAVRTIDNADSSTLHAVTFLRTPEILTVNSIGQLKIWDFRQQGNEPSQILSLTGDRVPLHCVDRHPNQQHVVATGGQDGMLSIWDVRQGTMPVSLLKAHEAEMWEVHFHPSNPEHLFTCSEDGSLWHWDASTDVPEKSSLFHQGGRSSTFLSHSISNQANVHQSVISSWLSTDPAKDRIEITSLLPSRSLSVNTLDVLGPCLVCGTDAEAIYVTRHLFS

Experiments:
[1] = molecular target: T1, NDC1 (human (endogenous in HeLa)); test: cryo-EM structure
[2] = molecular target: T2, Nup85 (human (endogenous in HeLa)); test: cryo-EM structure

Binder	binding [1]	binding [2]
B1	binds	–
B2	–	binds
